Experimental data as given in publication PMC9816148.
Results are given in words; binding and its absence hold for the method and conditions named. In cells and extracts the contact can be indirect. Some entries that bind do so weakly or less than the wild type.

The chains behind the UniProt entries cited, without tags or fusion partners.
UniProt P35222: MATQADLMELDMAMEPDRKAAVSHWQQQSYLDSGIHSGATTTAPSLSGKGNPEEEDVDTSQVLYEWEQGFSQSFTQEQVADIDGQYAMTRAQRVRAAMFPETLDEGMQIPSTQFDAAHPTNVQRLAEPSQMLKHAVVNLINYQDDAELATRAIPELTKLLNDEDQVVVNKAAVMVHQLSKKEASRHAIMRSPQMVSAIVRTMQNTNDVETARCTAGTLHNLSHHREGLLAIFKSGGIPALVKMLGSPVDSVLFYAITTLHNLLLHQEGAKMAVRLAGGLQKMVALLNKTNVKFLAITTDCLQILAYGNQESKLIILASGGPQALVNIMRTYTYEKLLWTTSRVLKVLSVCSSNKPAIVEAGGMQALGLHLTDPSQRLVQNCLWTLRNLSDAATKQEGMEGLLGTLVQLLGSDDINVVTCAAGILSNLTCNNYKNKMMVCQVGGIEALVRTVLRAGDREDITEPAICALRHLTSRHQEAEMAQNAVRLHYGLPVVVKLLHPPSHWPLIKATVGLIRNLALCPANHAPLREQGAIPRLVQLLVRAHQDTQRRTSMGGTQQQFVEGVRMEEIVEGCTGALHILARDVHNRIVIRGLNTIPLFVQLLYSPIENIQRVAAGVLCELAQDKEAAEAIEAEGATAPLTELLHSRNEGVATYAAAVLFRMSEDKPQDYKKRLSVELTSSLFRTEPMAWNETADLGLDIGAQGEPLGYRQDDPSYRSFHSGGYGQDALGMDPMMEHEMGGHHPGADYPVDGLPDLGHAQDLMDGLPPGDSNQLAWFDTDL
UniProt Q9GZV5: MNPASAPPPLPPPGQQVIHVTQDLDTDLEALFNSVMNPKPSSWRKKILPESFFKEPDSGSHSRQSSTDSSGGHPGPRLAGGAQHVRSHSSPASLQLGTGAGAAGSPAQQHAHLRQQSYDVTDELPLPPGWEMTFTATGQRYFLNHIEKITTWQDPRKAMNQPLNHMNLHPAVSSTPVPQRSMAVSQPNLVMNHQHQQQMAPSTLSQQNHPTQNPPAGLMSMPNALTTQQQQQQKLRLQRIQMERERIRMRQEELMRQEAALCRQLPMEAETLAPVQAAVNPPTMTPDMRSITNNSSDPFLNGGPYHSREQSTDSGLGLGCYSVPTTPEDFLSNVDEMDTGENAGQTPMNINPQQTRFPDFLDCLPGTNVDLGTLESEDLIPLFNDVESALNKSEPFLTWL

Key:
HA-tagged β-catenin = HA-tagged β-catenin (UniProt P35222); test: co-IP; HA-β-catenin and Flag-TAZ transiently coexpressed in AGS cells; lysates immunoprecipitated with anti-HA antibody and beads overnight at 4°C, then immunoblotted
[1] = target: TAZ (endogenous) (human (endogenous in AGS)) (UniProt Q9GZV5); test: co-IP; endogenous proteins; cell lysates immunoprecipitated with anti-TAZ antibody and beads overnight at 4°C, blotted for β-catenin; cells uninfected or cocultured with H. pylori NCTC11637 or 7.13 (MOI 100, 6 h), or with the wild-type strain or its CagA- mutant (6 h)

Substance	binding (HA-tagged β-catenin)	binding [1]
Flag-tagged TAZ (from UniProt Q9GZV5 1-400)	binds	
β-catenin (endogenous) (from UniProt P35222 1-781)		binds
